Experimental data: PubChem BioAssay AID2685 (National Center for Advancing Translational Sciences (NCATS), 2010)
The other results are listed elsewhere or left out. The main result of the screen is listed elsewhere. These columns were measured beside it and carry no call. Most of these compounds were active or inconclusive in the main read-out, so they are no random draw. Words in brackets tell the shape of the fitted curve; partial curves, single points and poor fits give uncertain potencies.

Experiment: qHTS Assay for Lipid Storage Modulators in Drosophila S3 Cells;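 on cell number change: cells counted by Cell Tracker Red CMTPX staining in the red channel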
Conditions: BODIPY lipid droplet fluorescence, 18-24 h; for cell number change: measured here: cell count max response, cells fed with added oleic acid
Summary of the method: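 Laser-scanning cytometry quantifies lipid droplet accumulation (500–530 nm total intensity; droplet/cell object ratio) in oleic acid-fed (400 uM added) Drosophila S3 cells treated with a concentration series. 20 uM Triacsin C defined 100% inhibition.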

[1] = measured here: lipid fluorescence (Fed channel) AC50, cells fed with added oleic acid
[2] = measured here: cell number channel AC50, cells fed with added oleic acid

Q: Which cell number change does the source give for O=c1cnc2ccccc2n1Cc1ccccc1C(F)(F)F here?
A: The cell number change was -2.02%.

Q: For COCCNC(=O)/C(C#N)=C/c1cccc(/C=C(\C#N)C(=O)NCCOC)c1, which cell number change is on record?
A: The cell number change was 11.5%.

Q: What about the AC50 [1] of the same compound?
A: The AC50 was 1.84 µM [falling, partial curve, poor fit].

Q: For Cc1ccc(C)c(NC(=O)CN(C)C(=O)c2sccc2C)c1, which AC50 [1] is on record?
A: The AC50 was 29.1 µM [falling, single point].

Q: Which cell number change does the source give for COc1cc(/C=C(\C#N)C(=O)Nc2cc(C(F)(F)F)ccc2Cl)ccc1OCC(=O)Nc1cccc(C(F)(F)F)c1 here?
A: Its cell number change is -10.6%.

Q: And the AC50 [1]?
A: Its AC50 is 29.1 µM [falling, single point].

Q: Which results are given for C=CCNC(=O)NC(=O)COC(=O)C(C)Oc1ccc(Cl)cc1Cl (stereo not given)?
A: cell number change: -31%; AC50 [2]: 32.6 µM [falling, single point]

Q: What does the source list for O=C(Nc1cccc(S(=O)(=O)N2CCOCC2)c1)c1ccc(N2CCCC2=O)cc1?
A: cell number change: -30.9%; AC50 [2]: 32.6 µM [falling, single point]; AC50 [1]: 29.1 µM [falling, single point]

Q: Which cell number change does the source give for O=C(CSc1nnc(Cc2cccs2)n1C1CCCCC1)N1CCCc2ccccc21 here?
A: Its cell number change is 14.8%.

Q: And the AC50 [1]?
A: The AC50 was 0.731 µM [falling, single point].

Q: With C/C(=N\NC(=O)c1c[nH]c2ccccc12)c1ccccn1 as the compound, how does the cell number change read?
A: The cell number change was 22.7%.

Q: With CN(C(=O)CSc1nc(N)nn1-c1ccccc1)c1ccccc1 as the compound, how does the cell number change read?
A: Its cell number change is 33.6%.

Q: And the AC50 [2]?
A: Its AC50 is 18.4 µM [rising, single point].

Q: What about the AC50 [1] of the same compound?
A: The AC50 was 25.9 µM [rising, single point].

Q: Which results are given for CCCCn1c(CCC)nc([N+](=O)[O-])c1Sc1ccc(Cl)cn1?
A: cell number change: -17.2%; AC50 [1]: 9.2 µM [falling, partial curve]

Q: What does the source list for O=C(OCC(=O)N1CCOCC1)c1ccc(Br)cc1?
A: cell number change: 25.7%; AC50 [1]: 29.1 µM [rising, single point]

Q: For O=C(CSCc1cccc(CSCC(=O)Nc2ccc3ccccc3c2)n1)Nc1ccc2ccccc2c1, which cell number change is on record?
A: Its cell number change is -12.1%.

Q: What about the AC50 [2] of the same compound?
A: Its AC50 is 0.00411 µM [rising, full curve, poor fit].

Q: Which cell number change does the source give for COc1cccc(CN2CCNC(=O)C2CC(=O)NCC(C)(C)N2CCOCC2)c1OC (stereo not given) here?
A: Its cell number change is 15.3%.

Q: Which results are given for NC(=O)c1ccc(NC(=O)COC(=O)CNC(=O)c2sc3ccccc3c2Cl)cc1?
A: cell number change: 2.76%; AC50 [1]: 0.146 µM [falling, partial curve, poor fit]

Q: For COc1ccc(-n2ncc3c2CC(C)(C)CC3NC(=O)CCn2nc(C)cc2C)cc1 (stereo not given), which cell number change is on record?
A: Its cell number change is -5.38%.

Q: Which cell number change does the source give for CCCCn1c(N)c(N(CC(C)C)C(=O)CSc2ccccc2C)c(=O)[nH]c1=O here?
A: The cell number change was 12.5%.

Q: And the AC50 [2]?
A: Its AC50 is 0.651 µM [falling, single point].

Q: With CCCOC(=O)c1ccc(-n2nnnc2SCC(=O)N2CCCCC2)cc1 as the compound, how does the cell number change read?
A: Its cell number change is -22.7%.

Q: And the AC50 [1]?
A: Its AC50 is 29.1 µM [falling, single point].

Q: With O=C(N/N=C/c1ccccc1O)c1cccc(C(F)(F)F)c1 as the compound, how does the cell number change read?
A: The cell number change was -16.6%.

Q: For O=C(NCC1CCCN1S(=O)(=O)c1cccs1)C(=O)Nc1ccc(F)cc1 (stereo not given), which AC50 [2] is on record?
A: Its AC50 is 5.17 µM [rising, single point].

Q: For CCCCn1c(N)c(N(C)C(=O)c2cn(-c3ccccc3)nc2-c2ccccc2)c(=O)[nH]c1=O, which cell number change is on record?
A: Its cell number change is -4.42%.

Q: With C=C1C(=O)O[C@H]2C[C@]3(C)C([C@@H](OC(=O)/C(C)=C/C)[C@H]12)[C@](C)(O)CC[C@H]3O (stereo not given in full) as the compound, how does the cell number change read?
A: Its cell number change is 40.1%.

Q: What about the AC50 [1] of the same compound?
A: Its AC50 is 29.1 µM [rising, single point].

Q: For COc1ccccc1C(=O)NCC(=O)OCC(=O)N1CC(C)OC(C)C1 (stereo not given), which cell number change is on record?
A: Its cell number change is -9.64%.

Q: Which cell number change does the source give for CN1C=CC=C/C1=C1/SC(=S)N(Cc2ccccc2)C1=O here?
A: Its cell number change is -27.8%.

Q: And the AC50 [2]?
A: The AC50 was 0.651 µM [falling, full curve, poor fit].

Q: And the AC50 [1]?
A: The AC50 was 29.1 µM [falling, partial curve, poor fit].

Q: Which cell number change does the source give for CNC(=O)Nc1ccccc1F here?
A: Its cell number change is -58.9%.

Q: And the AC50 [2]?
A: The AC50 was 29.1 µM [falling, single point].

Q: What about the AC50 [1] of the same compound?
A: Its AC50 is 29.1 µM [falling, single point].

Q: Which cell number change does the source give for CN(CCOc1ccccc1)C(=O)c1ccc(Cl)c(S(=O)(=O)N2CCCCC2)c1 here?
A: Its cell number change is -7.84%.

Q: Which cell number change does the source give for CCc1ccc(NC(=O)C2CCCN(S(=O)(=O)c3c(C)[nH]c(=O)[nH]c3=O)C2)cc1 (stereo not given) here?
A: Its cell number change is 75.1%.

Q: For Cc1cnc(C(=O)OC(C(=O)Nc2cc(C(F)(F)F)ccc2Cl)c2ccccc2)cn1 (stereo not given), which cell number change is on record?
A: The cell number change was 31.1%.

Q: And the AC50 [2]?
A: Its AC50 is 2 µM [rising, full curve].

Q: And the AC50 [1]?
A: The AC50 was 10 µM [rising, partial curve, poor fit].

Q: Which results are given for Cc1nc2cc(NC(=O)N3CCC(c4ccccc4)C3)ccc2n1C (stereo not given)?
A: cell number change: -15.4%; AC50 [1]: 1.16 µM [rising, partial curve]

Q: With COC(=O)c1ccc(Cn2nc(-c3ccc(C)c(C)c3)ccc2=O)cc1 as the compound, how does the AC50 [2] read?
A: Its AC50 is 2.91 µM [rising, single point].

Q: For O=C(Nc1ccc2oc(-c3ccccc3Cl)nc2c1)c1cncc(Br)c1, which cell number change is on record?
A: The cell number change was -14.1%.

Q: With CCOC(=O)C(C)(C)N(Cc1cccc(C)c1)S(=O)(=O)c1ccc(Cl)c([N+](=O)[O-])c1 as the compound, how does the AC50 [1] read?
A: Its AC50 is 18.4 µM [falling, partial curve].

Q: Which cell number change does the source give for CC(C)Oc1cccc(C(=O)NC(=S)Nc2ccc(Cl)c(C(=O)O)c2)c1 here?
A: Its cell number change is -24.2%.

Q: For CCOC(=O)c1cnc(SC)nc1Oc1cccc(NC(=O)c2ccc(Cl)cc2)c1, which cell number change is on record?
A: Its cell number change is 2.99%.

Q: Which results are given for C#CCn1cc(/C=N/NC(=O)COc2cccc3cccnc23)c2ccccc21?
A: cell number change: -58.1%; AC50 [2]: 29.1 µM [falling, single point]; AC50 [1]: 3.66 µM [rising, partial curve, poor fit]

Q: Which cell number change does the source give for CC(C)(C)NC(=O)c1cccc(NC(=O)Cc2ccc(Br)cc2)c1 here?
A: The cell number change was 46.5%.

Q: What about the AC50 [2] of the same compound?
A: Its AC50 is 10.3 µM [rising, partial curve].

Q: And the AC50 [1]?
A: The AC50 was 16.4 µM [rising, partial curve].

Q: What does the source list for CN(C)S(=O)(=O)c1cccc(C(=O)Nc2cc3c(cc2C(=O)O)OCCCO3)c1?
A: cell number change: 25.3%; AC50 [1]: 5.17 µM [falling, single point]

Q: Which cell number change does the source give for NS(=O)(=O)c1cccc(NC(=O)c2cccc3c(Br)cccc23)c1 here?
A: The cell number change was -6.74%.

Q: What about the AC50 [1] of the same compound?
A: Its AC50 is 16.4 µM [rising, single point].

Q: Which cell number change does the source give for COc1ccc(C(=O)Nc2ccc(N3CCOCC3)cc2)cc1S(=O)(=O)N1CCCC1 here?
A: Its cell number change is 45.5%.

Q: And the AC50 [2]?
A: Its AC50 is 29.1 µM [rising, single point].

Q: With O=C(CCN1C(=O)c2ccccc2C1=O)Nc1sc2c(c1C(=O)NCc1ccco1)CCCC2 as the compound, how does the cell number change read?
A: The cell number change was -36.7%.

Q: What about the AC50 [2] of the same compound?
A: Its AC50 is 23.1 µM [falling, single point].

Q: What about the AC50 [1] of the same compound?
A: The AC50 was 20.6 µM [falling, partial curve, poor fit].
